Data taken from paper PMC6514684.
Results are given in words; binding and its absence hold for the method and conditions named. Binding seen in cells or lysates may run through a third protein. Some results given as binding are weak or reduced against the parent protein; the word gives no strength.

Amino acid sequences for entries named in this document (tags omitted). A change or cut given only in a name is not applied to a line headed by its entry.
UniProt Q05655: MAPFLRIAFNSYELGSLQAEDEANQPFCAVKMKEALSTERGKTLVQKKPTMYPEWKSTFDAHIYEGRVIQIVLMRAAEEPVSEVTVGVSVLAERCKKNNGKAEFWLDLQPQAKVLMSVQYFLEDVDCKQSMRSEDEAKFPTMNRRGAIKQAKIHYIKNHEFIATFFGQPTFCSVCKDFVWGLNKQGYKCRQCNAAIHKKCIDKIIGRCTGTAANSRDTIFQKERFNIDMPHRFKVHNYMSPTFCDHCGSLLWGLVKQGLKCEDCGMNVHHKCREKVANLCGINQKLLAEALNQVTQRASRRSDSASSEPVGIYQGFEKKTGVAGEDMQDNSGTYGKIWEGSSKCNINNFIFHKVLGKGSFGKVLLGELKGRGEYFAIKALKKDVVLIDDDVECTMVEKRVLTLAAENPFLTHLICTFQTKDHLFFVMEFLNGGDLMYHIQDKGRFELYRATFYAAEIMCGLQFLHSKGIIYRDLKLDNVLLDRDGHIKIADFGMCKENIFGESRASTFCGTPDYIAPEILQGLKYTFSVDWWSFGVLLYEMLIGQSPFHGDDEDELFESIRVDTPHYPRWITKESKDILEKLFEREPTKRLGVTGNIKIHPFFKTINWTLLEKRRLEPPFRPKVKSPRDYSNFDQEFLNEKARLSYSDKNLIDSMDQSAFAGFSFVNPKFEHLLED
UniProt P40763: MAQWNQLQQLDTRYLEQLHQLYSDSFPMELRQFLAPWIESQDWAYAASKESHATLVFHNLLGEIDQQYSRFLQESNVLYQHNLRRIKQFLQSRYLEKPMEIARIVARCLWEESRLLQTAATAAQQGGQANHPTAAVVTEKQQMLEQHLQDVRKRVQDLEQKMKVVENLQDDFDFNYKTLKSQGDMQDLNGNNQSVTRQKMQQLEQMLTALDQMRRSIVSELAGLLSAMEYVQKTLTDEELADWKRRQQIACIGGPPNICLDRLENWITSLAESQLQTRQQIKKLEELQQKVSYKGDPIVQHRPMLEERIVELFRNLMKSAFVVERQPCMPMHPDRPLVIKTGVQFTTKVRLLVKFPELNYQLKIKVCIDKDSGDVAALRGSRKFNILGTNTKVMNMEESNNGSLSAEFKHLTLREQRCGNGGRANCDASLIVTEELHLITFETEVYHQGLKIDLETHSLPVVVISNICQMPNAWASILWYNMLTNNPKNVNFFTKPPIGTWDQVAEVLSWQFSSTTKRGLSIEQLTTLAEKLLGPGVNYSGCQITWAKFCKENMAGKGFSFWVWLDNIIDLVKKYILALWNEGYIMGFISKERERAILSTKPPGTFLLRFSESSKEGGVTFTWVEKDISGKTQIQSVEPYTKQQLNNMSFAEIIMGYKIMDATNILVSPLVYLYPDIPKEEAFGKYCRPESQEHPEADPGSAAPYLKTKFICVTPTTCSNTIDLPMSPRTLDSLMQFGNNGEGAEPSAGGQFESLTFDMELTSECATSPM

Target: protein kinase C delta (PKCδ) (human (endogenous in THP-1)) (UniProt Q05655)
Assay: co-IP; endogenous PKCδ immunoprecipitated from THP-1/EV and THP-1/IL-32θ cells treated with 10 nM PMA for 24 h; RIPA lysate, 1 mg lysate with 1 μg antibody, protein G-agarose; Western blot

Substance: signal transducer and activator of transcription 3 (STAT3) (from UniProt P40763 1-770)
- binding: binds
